The values that follow come from article PMC3168489.

One assay addresses T1, GST-Rasd1 (mouse) (UniProt O35626).
T1 sequence: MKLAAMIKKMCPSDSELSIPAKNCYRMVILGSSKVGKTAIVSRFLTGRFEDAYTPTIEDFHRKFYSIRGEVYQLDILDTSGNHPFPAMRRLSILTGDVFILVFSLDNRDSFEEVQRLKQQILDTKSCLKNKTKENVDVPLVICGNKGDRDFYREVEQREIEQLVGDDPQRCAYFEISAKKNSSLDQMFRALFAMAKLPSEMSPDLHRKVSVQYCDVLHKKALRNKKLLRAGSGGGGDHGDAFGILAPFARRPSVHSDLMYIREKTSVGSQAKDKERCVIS
Kind of assay: pull-down; COS-7 cells co-transfected with both plasmids (2 µg each); GST-tagged protein taken from the lysate with MagneGST particles; Western blot. (Immunoblotting shows a protein as a band on a membrane.)

A further assay concerns the target T2, GST-Rasd1 A178V (mouse) (UniProt O35626).
T2 sequence: T1 sequence with A178V
Described as above.

For the next assay, the target named is T3, GST-Rasd1 G81A (mouse) (UniProt O35626).
T3 sequence: T1 sequence with G81A
The assay is described as above.

The target of a further assay is T4, GST-Rasd1 T38N (mouse) (UniProt O35626).
T4 sequence: T1 sequence with T38N
Described as above.

Assay [1] has as its target T5, Rasd1 (endogenous, mouse brain) (mouse (endogenous in brain)) (UniProt O35626).
T5 sequence: T1 sequence
Kind of assay: co-IP; endogenous proteins, mouse brain lysate, goat polyclonal anti-Rasd1 or goat control IgG; blot with anti-NONO.

Substrate in assay [2]: T6, NONO (endogenous, HEK293T) (human (endogenous in HEK293T)) (UniProt Q15233)
T6 sequence: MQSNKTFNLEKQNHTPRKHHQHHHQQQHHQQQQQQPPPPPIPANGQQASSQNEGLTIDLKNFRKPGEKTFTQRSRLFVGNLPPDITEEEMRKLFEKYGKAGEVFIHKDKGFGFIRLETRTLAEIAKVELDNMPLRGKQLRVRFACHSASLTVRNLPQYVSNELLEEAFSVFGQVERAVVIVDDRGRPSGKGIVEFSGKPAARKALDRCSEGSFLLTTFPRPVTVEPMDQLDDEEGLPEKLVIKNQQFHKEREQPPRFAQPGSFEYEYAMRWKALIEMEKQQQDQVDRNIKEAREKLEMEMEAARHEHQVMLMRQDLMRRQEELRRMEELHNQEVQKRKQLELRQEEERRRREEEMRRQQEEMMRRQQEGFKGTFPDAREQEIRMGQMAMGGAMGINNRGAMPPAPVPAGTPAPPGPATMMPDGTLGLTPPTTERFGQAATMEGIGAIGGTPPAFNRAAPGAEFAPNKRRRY
Kind of assay: co-IP; endogenous proteins, HEK293T lysate (NP40 lysis buffer), rabbit polyclonal anti-NMT55/p54NRB or rabbit control IgG, rProtG agarose beads; blot with anti-Rasd1.

The target in a further assay is T7, GST-NonO (mouse) (UniProt Q99K48).
T7 sequence: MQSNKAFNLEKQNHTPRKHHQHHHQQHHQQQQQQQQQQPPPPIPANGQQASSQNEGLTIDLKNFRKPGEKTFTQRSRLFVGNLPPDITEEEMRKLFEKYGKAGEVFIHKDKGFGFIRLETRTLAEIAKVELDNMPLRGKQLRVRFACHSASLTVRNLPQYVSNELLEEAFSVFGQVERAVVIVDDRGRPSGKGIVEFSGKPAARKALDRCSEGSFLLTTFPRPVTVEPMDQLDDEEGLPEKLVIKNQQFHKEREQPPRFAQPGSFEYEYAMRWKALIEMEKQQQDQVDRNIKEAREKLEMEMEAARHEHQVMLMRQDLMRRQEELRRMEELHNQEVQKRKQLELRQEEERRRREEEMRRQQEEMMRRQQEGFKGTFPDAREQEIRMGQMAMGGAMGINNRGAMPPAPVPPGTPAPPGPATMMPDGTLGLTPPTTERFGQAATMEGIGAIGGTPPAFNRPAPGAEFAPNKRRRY
Kind of assay: pull-down; COS-7 cells co-transfected with both plasmids (2 µg each); GST-tagged protein taken from the lysate with MagneGST particles; Western blot.

Substitutions are numbered along the chain they refer to. No constants are given. Whether binding was seen depends on the method and setting. In cells and extracts the contact can be indirect. Some results given as binding are weak or reduced against the parent protein; the word gives no strength. For some of these results: Where a sequence is shown, tags or fusion partners need not be part of it.

B1: NonO-V5 (protein, UniProt Q99K48 1-473)
chain: T7 sequence
Take B1: the binding result is given as “binds” in the assay with GST-Rasd1 (mouse), “binds” with GST-Rasd1 A178V (mouse), “no binding” with GST-Rasd1 G81A (mouse) and “binds” in the assay with GST-Rasd1 T38N (mouse).

B2: NonO (endogenous, mouse brain) (protein, UniProt Q99K48 1-473)
chain: T7 sequence
For B2, the binding entry in assay [1] is “binds”.

B3: RASD1 (endogenous, HEK293T) (protein, UniProt Q9Y272 1-281)
chain: MKLAAMIKKMCPSDSELSIPAKNCYRMVILGSSKVGKTAIVSRFLTGRFEDAYTPTIEDFHRKFYSIRGEVYQLDILDTSGNHPFPAMRRLSILTGDVFILVFSLDNRDSFEEVQRLRQQILDTKSCLKNKTKENVDVPLVICGNKGDRDFYREVDQREIEQLVGDDPQRCAYFEISAKKNSSLDQMFRALFAMAKLPSEMSPDLHRKVSVQYCDVLHKKALRNKKLLRAGSGGGGGDPGDAFGIVAPFARRPSVHSDLMYIREKASAGSQAKDKERCVIS
Take B3: the binding result in assay [2] is reported as “binds”.

B4: HA-Rasd1 (protein, UniProt O35626 1-280)
chain: T1 sequence
B4: in the assay with GST-NonO (mouse), the binding entry is on record as “binds”.
